Source: PMC12297241
These are yes or no findings as the source states them, for the method shown. In cells and extracts the contact can be indirect. Some results given as binding are weak or reduced against the parent protein; the word gives no strength. Tags and fused reporters may be left off the sequences shown.

Target: T1, RIPK1-WT overexpressed in HEK293T cells (Flag-RIPK1-WT or Myc-RIPK1-WT) (human), Q13546
T1 chain: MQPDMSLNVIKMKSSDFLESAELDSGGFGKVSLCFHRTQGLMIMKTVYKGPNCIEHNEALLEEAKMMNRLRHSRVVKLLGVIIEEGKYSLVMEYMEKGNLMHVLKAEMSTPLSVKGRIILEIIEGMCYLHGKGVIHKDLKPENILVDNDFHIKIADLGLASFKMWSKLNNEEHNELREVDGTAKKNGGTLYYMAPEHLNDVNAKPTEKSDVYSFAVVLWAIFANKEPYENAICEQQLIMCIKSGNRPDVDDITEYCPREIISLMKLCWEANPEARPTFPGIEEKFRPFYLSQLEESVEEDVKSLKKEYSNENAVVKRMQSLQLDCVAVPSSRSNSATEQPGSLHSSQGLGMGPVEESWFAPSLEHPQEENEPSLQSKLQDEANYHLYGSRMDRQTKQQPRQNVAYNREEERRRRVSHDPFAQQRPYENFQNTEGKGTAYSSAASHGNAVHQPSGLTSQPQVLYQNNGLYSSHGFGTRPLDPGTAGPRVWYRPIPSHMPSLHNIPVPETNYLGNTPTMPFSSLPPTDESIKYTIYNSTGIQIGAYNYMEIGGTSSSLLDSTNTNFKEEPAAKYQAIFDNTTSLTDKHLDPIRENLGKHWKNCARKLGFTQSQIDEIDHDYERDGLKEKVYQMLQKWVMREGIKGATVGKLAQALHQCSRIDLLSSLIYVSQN
Experiment: co-IP; HEK293T cells co-transfected for 24 h with Flag- and Myc-tagged expression vectors; lysates immunoprecipitated overnight with anti-Flag beads at 4 °C; immunoblot
Conditions: remark: other sources report otherwise

B1: RIPK1-WT overexpressed in HEK293T cells (Flag-RIPK1-WT or Myc-RIPK1-WT), Q13546 1-671 (protein)
chain: MQPDMSLNVIKMKSSDFLESAELDSGGFGKVSLCFHRTQGLMIMKTVYKGPNCIEHNEALLEEAKMMNRLRHSRVVKLLGVIIEEGKYSLVMEYMEKGNLMHVLKAEMSTPLSVKGRIILEIIEGMCYLHGKGVIHKDLKPENILVDNDFHIKIADLGLASFKMWSKLNNEEHNELREVDGTAKKNGGTLYYMAPEHLNDVNAKPTEKSDVYSFAVVLWAIFANKEPYENAICEQQLIMCIKSGNRPDVDDITEYCPREIISLMKLCWEANPEARPTFPGIEEKFRPFYLSQLEESVEEDVKSLKKEYSNENAVVKRMQSLQLDCVAVPSSRSNSATEQPGSLHSSQGLGMGPVEESWFAPSLEHPQEENEPSLQSKLQDEANYHLYGSRMDRQTKQQPRQNVAYNREEERRRRVSHDPFAQQRPYENFQNTEGKGTAYSSAASHGNAVHQPSGLTSQPQVLYQNNGLYSSHGFGTRPLDPGTAGPRVWYRPIPSHMPSLHNIPVPETNYLGNTPTMPFSSLPPTDESIKYTIYNSTGIQIGAYNYMEIGGTSSSLLDSTNTNFKEEPAAKYQAIFDNTTSLTDKHLDPIRENLGKHWKNCARKLGFTQSQIDEIDHDYERDGLKEKVYQMLQKWVMREGIKGATVGKLAQALHQCSRIDLLSSLIYVSQN
- binding: binds
